Our source for the binding values is patent publication US20080235828A1 (University of Manitoba, priority 2004, published 2008).

Assay [1] addresses T1, GST:FCA-WW fusion protein (3' end of FCA gamma possessing the WW domain, fused with GST) (Arabidopsis) (UniProt O04425).
T1 sequence (looked up): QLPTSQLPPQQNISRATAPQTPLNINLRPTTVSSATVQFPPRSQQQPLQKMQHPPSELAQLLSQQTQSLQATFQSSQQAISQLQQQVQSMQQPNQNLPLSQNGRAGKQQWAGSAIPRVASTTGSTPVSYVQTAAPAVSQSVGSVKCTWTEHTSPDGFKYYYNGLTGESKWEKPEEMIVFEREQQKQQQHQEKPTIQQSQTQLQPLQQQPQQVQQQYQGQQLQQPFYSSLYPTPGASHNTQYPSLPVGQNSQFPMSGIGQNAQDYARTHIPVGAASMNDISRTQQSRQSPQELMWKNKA
Nature of the assay: GST pull-down of [35S]-FY by GST:FCA, SDS-PAGE and autoradiography.

Assay [2] deals with T1, GST:FCA-WW fusion protein (3' end of FCA gamma possessing the WW domain, fused with GST) (Arabidopsis). Nature of the assay: GST:FCA-WW-FY complex on resin, dual 35S/3H counting.

No constants are given. Whether binding was seen depends on the method and setting. Some entries that bind do so weakly or less than the wild type. Where a sequence is shown, tags or fusion partners need not be part of it.

B1: FY protein, in vitro translated and labeled with [35S]-methionine (protein, UniProt Q6NLV4 1-647, looked up)
chain: MYAGGDMHRGSQMPQPPMMRQSSASSTNINPDYHHPSGPFDPNVDSFGAKRMRKHTQRRAVDYTSTVVRYIQARTWQRDSRDRTTLQPTPAAAVDMLPTVAYSDNPSTSFAAKFVHASLNKNRCSINRVLWTPSGRRLITGSQSGEFTLWNGQSFNFEMILQAHDQPIRSMVWSHNENYMVSGDDGGTLKYWQNNMNNVKANKTAHKESIRDLSFCKTDLKFCSCSDDTTVKVWDFTKCVDESSLTGHGWDVKSVDWHPTKSLLVSGGKDQLVKLWDTRSGRELCSLHGHKNIVLSVKWNQNGNWLLTASKDQIIKLYDIRTMKELQSFRGHTKDVTSLAWHPCHEEYFVSGSSDGSICHWIVGHENPQIEIPNAHDNSVWDLAWHPIGYLLCSGSNDHTTKFWCRNRPADNPRDVLMQNQGYNEQGFGRQPDNFQPSEASPIPGAFVPGLTRNEGTIPGIGIAMPFDASSQGDHKQPLPGSMALGAPPLPPGPHPSLLGSGQQQGYQQQQQHQGHPQQMLPMPNMPHHQLPPSSHMPLHPHHLPRPMQMPPHGHMPPPSMPMSHQMPGSMGMQGGMNPQMSQSHFMGAPSGVFQGQPNSGGPQMYPQGRGGFNRPQMIPGYNNPFQQQQQPPLPPGPPPNNNQQHQ
modifications: [35S]-methionine label
As to B1, the binding result in assay [1] and in assay [2] was “binds” each time.
